Inconclusive results, whose numbers are uncertain, are shown with a selection of clear calls. The source made the active and inactive calls.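 The calls were made as follows, unless noted: active = fitted dose curve reaches 40% lysis signal rise at or below the highest valid concentration tested for that sample; inconclusive = flat fit between 30% and 70%, or poor curve fit; inactive = signal falls, stays flat within 30%, or no crossing.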
test: C. neoformans lysis by adenylate kinase leakage – AK release luminescence, cherry-picks, dose response (AID 687000); settings: 4 h, 100% = twice the neutral-control signal; at 15 µM (top of the series) unless noted;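 also: luminescent detection of adenylate kinase leaking from lysed yeast; 0% = median neutral control signal and 100% = double that signal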

SMILES | lysis activity
C[C@@H]1CN([C@H](C)CO)S(=O)(=O)c2ccc(C#Cc3ccccn3)cc2O[C@H]1CN(C)Cc1ccccc1 | inconclusive: -0.39%
O=C(C[C@H]1CC[C@@H]2[C@H](COC[C@@H](O)CN2C(=O)c2cnccn2)O1)NCc1ccc(Oc2ccccc2)cc1 | inconclusive: 22.8%
C[C@@H]1CN([C@@H](C)CO)C(=O)c2cc(NC(=O)Nc3ccccc3)ccc2O[C@@H]1CN(C)C(=O)Nc1cccc2ccccc12 | inconclusive: 25.8%
O=C(N[C@@H]1CC[C@@H](CCn2cc(-c3ccccc3)nn2)O[C@H]1CO)c1cnccn1 | inconclusive: 61.1%
NC(=O)NCC#Cc1ccc2c(c1)[C@]1(C(=O)N2)[C@H](C(N)=O)[C@H]2C(=O)O[C@H](c3ccccc3)[C@H](c3ccccc3)N2[C@@H]1c1ccccc1OCCO | inactive: -22.6%
C[C@H]1CCCCO[C@@H](CN(C)Cc2ccncc2)[C@@H](C)CN([C@@H](C)CO)C(=O)c2cc(NC(=O)Nc3ccccc3)ccc2O1 | inconclusive: 19.5%
O=C(NC[C@@H]1[C@@H](c2ccccc2)[C@H](CO)N1C(=O)C1CCC1)NC1CCCC1 | inactive: 5.84%
COc1ccccc1-c1cnc2c(c1)C(=O)N([C@H](C)CO)C[C@@H](C)[C@H](CN(C)Cc1cncnc1)O2 | inactive: -17.9%
C[C@@H]1CN([C@@H](C)CO)C(=O)c2cc(C3=CCCCC3)cnc2O[C@H]1CN(C)C(=O)Cc1cccnc1 | inactive: -9.05%
C[C@H](CO)N1C[C@H](C)[C@@H](CN(C)Cc2ccc(Oc3ccccc3)cc2)Oc2ccc(NS(=O)(=O)c3cn(C)cn3)cc2CC1=O | inconclusive: 52.4%
Cc1cc(OCC(=O)N(C)Cc2ccccc2)cc(C)c1Cl | inactive: -22%

test: viability loss in HeLa cells – cell-based, ATP luminescence, cherry-pick samples, cytotoxicity control, dose response (AID 687004;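 active = a fitted half-maximal concentration no higher than twice the top valid tested dose, with signal falling as cells die; inconclusive = flat curve between -70% and -30%, or poor fit; inactive = the rest, including signal rising instead of falling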;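 also: 0% = neutral control median and -100% = staurosporine 10 µM control median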); settings: ATP luminescence (CellTiter-Glo), 48 h; at 26 µM (top of the series) unless noted

SMILES | activity change, negative = cytotoxicity
Cc1ccccc1NC(=O)C1CCC(=O)N1 (centres undefined) | inactive: 0.738%
Cc1cc(C)c(NC(=O)CN2CCN3CCCC3C2)c(C)c1 (centres undefined) | inactive: -3.25%
Cc1ccc(N(C(=O)C2CCC(=O)N2)C2(C(=O)NC3CCCCC3)CCCCC2)cc1 (centres undefined) | inactive: -1.26%

— PubChem BioAssay
